The list does not hold the whole screen: it gathers tests that were run many times, whatever their T/C, doses with no T/C, and many T/C values between a quarter and a half above the control. Other doses and runs of a compound stand elsewhere. T/C is the treated group as % of the vehicle group. Some doses have a count of surviving animals in place of a T/C: the source holds a T/C of zero for them, seemingly a mark for toxic or unscored doses. Some doses without a T/C left all or most animals alive at the check, yet need not have been tolerated: survival well below the control is almost never listed, so the zero probably covers shortened survival too. Survivors were counted at the toxicity check, usually on the fifth day, unless a day is given; later deaths do not show. Schedule codes are those of the source, taken here to give the interval after Q, in days (D) or hours (H), and the number of doses after X. For survival time, this PubChem deposit counts one and a half times the control or more as active, and values a quarter to a half above the control carry no call in these data; other NCI protocols may use other cut-offs. Some entries hold several experiments; the values are given in rising order. Some T/C values are followed by the survivors on the day toxicity was checked, most often the fifth; without a count, all were alive then.
Tested on: BDF1 mice, P388 leukemia ip, median survival T/C
Assay: NCI In Vivo Anticancer Drug Screen. Data for tumor model P388 Leukemia (intraperitoneal) in B6D2F1 (BDF1) mice
Details: T/C endpoint: median survival time, higher T/C = longer survival
Outline: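 Antitumour effect was judged in vivo: survival in drug-treated mice, normalised to that of vehicle-dosed controls, gives the reported T/C.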

[1] = dose: 50.0 mg/kg/injection, schedule: Q01DX009 (ip), vehicle: saline with Tween-80
[2] = dose: 400.0 mg/kg/injection, schedule: Q01DX009 (ip), vehicle: saline with Tween-80
[3] = dose: 12.5 mg/kg/injection, schedule: Q01DX009 (ip), vehicle: saline with Tween-80
[4] = dose: 25.0 mg/kg/injection, schedule: Q01DX009 (ip), vehicle: saline with Tween-80
[5] = dose: 100.0 mg/kg/injection, schedule: Q01DX009 (ip), vehicle: saline with Tween-80

COc1cc2cc3c4cc(OC)c(OC)cc4cc[n+]3c(C)c2cc1OC
T/C (dose: 16.0 mg/kg/injection, schedule: Q03HX008 (ip), vehicle: saline): 136 % of control | T/C (dose: 16.0 mg/kg/injection, schedule: Q03HX024 (ip), vehicle: saline): 145 % of control | T/C (dose: 25.0 mg/kg/injection, schedule: Q01DX009 (ip), vehicle: Klucel (hydroxypropylcellulose) (HPC)): 125 % of control [5 of 6 alive] | T/C (dose: 25.0 mg/kg/injection, schedule: Q01DX009 (ip), vehicle: saline): 146 % of control | T/C (dose: 25.0 mg/kg/injection, schedule: Q04DX003 (ip), vehicle: saline): 142 % of control | T/C (dose: 37.5 mg/kg/injection, schedule: Q04DX003 (ip), vehicle: saline): 145 % of control [9 of 10 alive] | T/C (dose: 50.0 mg/kg/injection, schedule: Q01DX009 (ip), vehicle: Klucel (hydroxypropylcellulose) (HPC)): 145 % of control | T/C [1]: 131 % of control | T/C (dose: 50.0 mg/kg/injection, schedule: Q04DX002 (ip), vehicle: saline): 146 % of control | T/C (dose: 50.0 mg/kg/injection, schedule: Q04DX003 (ip), vehicle: saline): 146 % of control | T/C (dose: 64.0 mg/kg/injection, schedule: Q03HX008 (ip), vehicle: saline): 145 % of control | T/C (dose: 100.0 mg/kg/injection, schedule: Q01DX009 (ip), vehicle: saline): 146 % of control | T/C (dose: 100.0 mg/kg/injection, schedule: Q04DX002 (ip), vehicle: saline): 139 % of control | T/C (dose: 100.0 mg/kg/injection, schedule: Q04DX003 (ip), vehicle: saline): 136 % of control | T/C (dose: 128.0 mg/kg/injection, schedule: Q01DX001 (ip), vehicle: saline): 140 % of control | T/C (dose: 128.0 mg/kg/injection, schedule: Q04DX003 (ip), vehicle: saline): 145 % of control | T/C (dose: 128.0 mg/kg/injection, schedule: Q08DX002 (ip), vehicle: saline): 145 % of control | T/C (dose: 200.0 mg/kg/injection, schedule: Q04DX002 (ip), vehicle: saline): 136 % of control | T/C (dose: 256.0 mg/kg/injection, schedule: Q01DX001 (ip), vehicle: saline): 145 % of control | T/C (dose: 256.0 mg/kg/injection, schedule: Q01DX009 (ip), vehicle: saline): 140 % of control | T/C (dose: 256.0 mg/kg/injection, schedule: Q03HX008 (ip), vehicle: saline): 140 % of control [6 of 8 alive] | T/C (dose: 256.0 mg/kg/injection, schedule: Q04DX003 (ip), vehicle: saline): 140 % of control | T/C [2]: 127 and 145 % of control | T/C (dose: 400.0 mg/kg/injection, schedule: Q01DX009 (ip), vehicle: saline): 136 % of control | survivor count (dose: 400.0 mg/kg/injection, schedule: Q01DX009 (ip), vehicle: water): 5 of 10 | survivor count (dose: 512.0 mg/kg/injection, schedule: Q01DX009 (ip), vehicle: saline): 6 of 8 | T/C (dose: 512.0 mg/kg/injection, schedule: Q04DX003 (ip), vehicle: saline): 136 % of control | survivor count (dose: 1024.0 mg/kg/injection, schedule: Q01DX009 (ip), vehicle: saline): 7 of 8 | T/C (dose: 1024.0 mg/kg/injection, schedule: Q04DX003 (ip), vehicle: saline): 136 % of control | survivor count (dose: 2048.0 mg/kg/injection, schedule: Q01DX001 (ip), vehicle: saline): 7 of 8 | survivor count (dose: 2048.0 mg/kg/injection, schedule: Q08DX002 (ip), vehicle: saline): 8 of 8

CCOC(=O)N1c2ccccc2C=CC1/C(N)=N/O (centres undefined)
survivor count (dose: 200.0 mg/kg/injection, schedule: Q04DX003 (ip), vehicle: Klucel (hydroxypropylcellulose) (HPC)): 6 of 6

CC(Cl)CN(CC(C)Cl)c1ccc(S(=O)(=O)Nc2ncccn2)cc1 (centres undefined)
T/C (dose: 18.0 mg/kg/injection, schedule: Q01DX009 (ip), vehicle: gum acacia): 144 % of control | survivor count (dose: 300.0 mg/kg/injection, schedule: Q01DX009 (ip), vehicle: gum acacia): 5 of 6

CC1CC[N-]CC1.CC1CC[N-]CC1.[Br][Pt+2]([Br])([Br])[Br]
T/C [3]: 139 % of control | T/C (dose: 12.5 mg/kg/injection, schedule: Q04DX003 (ip), vehicle: saline with Tween-80): 138 % of control | survivor count [4]: 3 of 6 | T/C (dose: 25.0 mg/kg/injection, schedule: Q04DX003 (ip), vehicle: saline with Tween-80): 128 % of control | survivor count [1]: 1 of 6

CCOC(=O)c1cnc2c(OC)cccc2c1Cl
survivor count (dose: 32.0 mg/kg/injection, schedule: Q01DX009 (ip), vehicle: saline): 6 of 6

CC(=O)O.CC(=O)O.[NH-]C(CCC(N)=O)C(=O)O.[NH-]C(CCC(N)=O)C(=O)O.[Ni+2] (centres undefined)
survivor count (dose: 50.0 mg/kg/injection, schedule: Q01DX009 (ip), vehicle: saline): 4 of 6

CCCCOC(=O)c1ccc(NC(=O)Nc2ccccc2OC)cc1
survivor count (dose: 200.0 mg/kg/injection, schedule: Q04DX003 (ip), vehicle: saline with Tween-80): 6 of 6 | survivor count (dose: 400.0 mg/kg/injection, schedule: Q04DX003 (ip), vehicle: saline with Tween-80): 6 of 6

Nc1nc(N)c2cc(CNc3ccc(C(=O)NC(C(=O)O)C(=O)O)cc3)ccc2n1
T/C (dose: 0.06 mg/kg/injection, schedule: Q01DX009 (ip), vehicle: saline): 131 % of control | T/C (dose: 0.1 mg/kg/injection, schedule: Q01DX009 (ip), vehicle: saline): 145 % of control

NC1CCC(CCCC2CCCC2)CC1 (centres undefined)
survivor count (dose: 100.0 mg/kg/injection, schedule: Q01DX009 (ip), vehicle: Klucel (hydroxypropylcellulose) (HPC)): 0 of 6

COc1cc(OC)c(Br)cc1C
survivor count [5]: 6 of 6 | survivor count (dose: 200.0 mg/kg/injection, schedule: Q01DX009 (ip), vehicle: saline with Tween-80): 6 of 6 | survivor count [2]: 5 of 6

N#CCCSC(=S)C1CCCC1=N (centres undefined)
T/C [1]: 128 % of control

Nc1ncc(C(=O)O)c(N)n1
survivor count (dose: 3.12 mg/kg/injection, schedule: Q01DX009 (ip), vehicle: saline with Tween-80): 6 of 6 | survivor count [3]: 6 of 6 | survivor count [1]: 6 of 6

CCNc1ccc(/C=C2\C=Cc3ccccc32)cc1
survivor count (dose: 6.25 mg/kg/injection, schedule: Q01DX009 (ip), vehicle: Klucel (hydroxypropylcellulose) (HPC)): 6 of 6

CCc1nc(N)nc(N)c1-c1ccc(Cl)cc1
survivor count (dose: 4.0 mg/kg/injection, schedule: Q01DX009 (oral), vehicle: Klucel (hydroxypropylcellulose) (HPC)): 5 of 10 | survivor count (dose: 8.0 mg/kg/injection, schedule: Q01DX009 (oral), vehicle: Klucel (hydroxypropylcellulose) (HPC)): 5 of 10 | survivor count (dose: 32.0 mg/kg/injection, schedule: Q01DX009 (oral), vehicle: Klucel (hydroxypropylcellulose) (HPC)): 8 of 10 | survivor count (dose: 64.0 mg/kg/injection, schedule: Q01DX009 (oral), vehicle: Klucel (hydroxypropylcellulose) (HPC)): 4 of 10

COC(=O)c1[nH]cnc1/N=N\N(CCF)CCF
T/C (dose: 13.0 mg/kg/injection, schedule: Q04DX003 (ip), vehicle: saline with Tween-80): 127 % of control | T/C (dose: 20.0 mg/kg/injection, schedule: Q04DX003 (ip), vehicle: saline with Tween-80): 131 % of control | survivor count [4]: 3 of 6 | T/C (dose: 30.0 mg/kg/injection, schedule: Q04DX003 (ip), vehicle: saline with Tween-80): 140 % of control | T/C (dose: 44.0 mg/kg/injection, schedule: Q04DX003 (ip), vehicle: saline with Tween-80): 145 % of control | survivor count [1]: 4 of 6 | survivor count [5]: 4 of 6 | survivor count (dose: 150.0 mg/kg/injection, schedule: Q04DX003 (ip), vehicle: saline with Tween-80): 5 of 6

COc1cc(NC(=O)C(C)NC(=O)C(N)CCCCN)cc2ccccc12 (centres undefined)
survivor count (dose: 200.0 mg/kg/injection, schedule: Q01DX005 (ip), vehicle: suspension in saline): 0 of 5

O=C(/C=C/c1ccccc1Cl)NCC(O)CO (centres undefined)
survivor count (dose: 200.0 mg/kg/injection, schedule: Q01DX009 (ip), vehicle: other): 6 of 6

COC(OC)c1[nH]c(=S)[nH]c(=O)c1Cc1cccc(Cl)c1
T/C (dose: 200.0 mg/kg/injection, schedule: Q01DX009 (ip), vehicle: Klucel (hydroxypropylcellulose) (HPC)): 127 % of control
